Common to all, as to experiment: cell viability (% of vehicle); higher = less cytotoxic
Holding throughout (settings): 10 µM; 72 h

The subject of assay [1] is HCI01 (cells of a triple-negative basal-like breast cancer xenograft).
Assay [2] concerns HCI03 (cells of an ER-positive luminal breast cancer xenograft).
Assay [3] has as its system HCI09 (cells of a triple-negative luminal androgen receptor type breast cancer xenograft).
The subject of assay [4] is HCI11 (cells of an ER-positive luminal breast cancer xenograft).
In assay [5] the test system is HCI13 (cells of an ER-positive luminal breast cancer xenograft).
The subject of assay [6] is HCI16 (cells of a triple-negative basal-like breast cancer xenograft).
Assay [7] concerns UCD52 (cells of a triple-negative basal-like breast cancer xenograft).
The subject of assay [8] is WHIM2 (cells of a triple-negative basal-like breast cancer xenograft).
Assay [9] concerns WHIM30 (cells of a triple-negative basal-like breast cancer xenograft).

± gives the standard deviation of the averaged measurements. Most of the lowest values are listed elsewhere, so they are rarer here than in the full data.
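Further: PDX cells carrying CMV promoter-driven luciferase, viability read as total photon flux per second by IVIS imaging following D-luciferin, vehicle control 0.1% DMSO.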

In the case of `Br.CN1C2CCC1CC(OC(=O)C(O)c1ccccc1)C2` (centres undefined) [Homatropine Bromide], the cell viability turned out to be 133 ± 9.9 in [1]; 129 in assay [2]; 111 ± 11 in assay [3]; 99.8 in assay [4]; 140 ± 15 in assay [5]; 110 in assay [6]. Also, the cell viability was found to be 70.4 ± 13 in assay [7], 95.17 ± 0.59 in [8] and 106 ± 4.9 in assay [9].

The values above are taken from the supplement of paper PMC6992640.
